No constants are given. Whether binding was seen depends on the method and setting. For part of these data: Binding seen in cells or lysates may run through a third protein. Some binding calls cover weakened binding; strength is not graded here.
What was measured:
[1] = biological target: cytoplasmic domain of the Vpu protein (Vpuc), amino acid residues 28 to 81 (HIV-1) (UniProt P05923); test: yeast two-hybrid (His3 and LacZ reporters)
[2] = biological target: cytoplasmic domain of the Vpu protein (Vpuc), amino acid residues 28 to 81 (HIV-1) (UniProt P05923); test: yeast two-hybrid with deletion mutants
[3] = biological target: cytoplasmic domain of the Vpu protein (Vpuc), amino acid residues 28 to 81 (HIV-1) (UniProt P05923); test: yeast two-hybrid, FIG. 1
[4] = biological target: Vpu protein (translated in vitro in rabbit reticulocyte lysate, FIG. 3) (HIV-1) (UniProt P05923); test: co-immunoprecipitation, 15% SDS-PAGE gel
[5] = biological target: cytoplasmic domain of the Vpu protein (Vpuc), amino acid residues 28 to 81 (HIV-1) (UniProt P05923); test: yeast two-hybrid
[6] = biological target: cytoplasmic domain of the Vpu protein (Vpuc), amino acid residues 28 to 81 (HIV-1) (UniProt P05923); test: yeast two-hybrid (βTrCP+Vpuc)
[7] = biological target: Vpu protein (translated in vitro in rabbit reticulocyte lysate, FIG. 3) (HIV-1) (UniProt P05923); test: co-immunoprecipitation after cotranslation in rabbit reticulocyte lysate

Sequences of proteins named here, by UniProt entry; tags and fusion partners are left off. A change or cut given only in a name is not applied to a line headed by its entry. Residues count along the entry.
UniProt P05923, residues 28-81: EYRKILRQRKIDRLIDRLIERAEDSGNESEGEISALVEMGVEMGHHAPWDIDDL
UniProt Q9Y297: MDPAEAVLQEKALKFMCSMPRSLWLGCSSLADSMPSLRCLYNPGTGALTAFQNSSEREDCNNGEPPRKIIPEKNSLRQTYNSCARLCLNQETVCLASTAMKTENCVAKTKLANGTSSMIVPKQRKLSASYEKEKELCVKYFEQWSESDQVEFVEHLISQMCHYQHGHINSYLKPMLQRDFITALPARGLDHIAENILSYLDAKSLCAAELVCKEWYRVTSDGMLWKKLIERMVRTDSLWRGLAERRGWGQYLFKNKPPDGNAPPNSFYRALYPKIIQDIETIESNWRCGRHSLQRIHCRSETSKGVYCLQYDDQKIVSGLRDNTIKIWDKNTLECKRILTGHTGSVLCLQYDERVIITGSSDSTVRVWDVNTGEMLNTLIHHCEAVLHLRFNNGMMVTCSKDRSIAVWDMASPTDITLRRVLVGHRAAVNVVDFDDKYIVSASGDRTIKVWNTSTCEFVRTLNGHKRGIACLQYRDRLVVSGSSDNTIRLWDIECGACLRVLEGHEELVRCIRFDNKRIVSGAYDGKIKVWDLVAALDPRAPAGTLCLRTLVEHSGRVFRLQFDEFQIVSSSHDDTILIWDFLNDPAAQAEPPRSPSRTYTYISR

Measured: binding

VBP1 (C-terminal region of the h-βTrCP protein, amino acid residues 251 to 569) (from UniProt Q9Y297 287-605)
binds: [1] | [2]

human βTrCP protein (h-βTrCP) (from UniProt Q9Y297 1-605)
binds: all assays above
